Assay results: the supplement of paper PMC10338343
± gives the standard deviation. The list shows a part of the results, in another mix than the full data. The uncertainty is large for many entries. This is one part of the list.

Experiments:
[1] = test system: MILI (PIWIL2) piRISC loaded with L1MC piRNA (26 nt); assay: pre-steady-state target cleavage rate (min^-1); higher = faster piRNA-guided slicing of the target; settings: guide: L1MC piRNA 5'p-UAACUAAAUACUAUGCAAGCUGUAGG
Summary of the method: (§1)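 Using HEPES–potassium acetate buffer at 33 °C, 1 nM active affinity-purified piRISC with a single synthetic guide was mixed with 0.1 nM transcribed, DNA-blocked target RNA library for 0–8 or 0–960 min, with or without 500 nM GTSF1 partner protein. Uncleaved targets were sequenced and normalised to depth and to weakly complementary targets, and three trials were pooled with k3 capped at 0.0001 min^-1. A burst-and-steady-state fit gave the pre-steady-state cleavage rate.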

[2] = test system: MIWI (PIWIL1) piRISC loaded with L1MC piRNA (30 nt); assay: as above; settings: guide: L1MC piRNA 5'p-UAACUAAAUACUAUGCAAGCUGUAGGUCCU; auxiliary factor: none (no GTSF1)
Summary of the method: as §1

[3] = test system: EfPiwi piRISC loaded with L1MC piRNA (26 nt); assay: pre-steady-state target cleavage rate (min^-1); guide: L1MC piRNA 5'p-UAACUAAAUACUAUGCAAGCUGUAGG; MIWI and MILI are mouse PIWI proteins and EfPiwi is from a freshwater sponge; tags in brackets are library labels; higher = faster piRNA-guided slicing of the target
Summary of the method: as §1

[4] = auxiliary factor: 500 nM Ephydatia muelleri Gtsf1
[5] = auxiliary factor: none (no GTSF1)

| Sequence | pre-steady-state target cleavage rate ([1]; auxiliary factor: 500 nM mouse GTSF1) | pre-steady-state target cleavage rate [2] | pre-steady-state target cleavage rate [3, 4] | pre-steady-state target cleavage rate [1, 5] | pre-steady-state target cleavage rate ([3]; auxiliary factor: none (no Gtsf1)) |
| --- | --- | --- | --- | --- | --- |
| UCCUGGAUGUCGAACCAAUCUAUUUAGUUA | 0.000112 ± 0.015 | 0.000101 ± 0.023 | 0.000227 ± 0.02 |  |  |
| UCCUGGAUGUCGAACGUUAGUCAUUUAGUUA |  | 0.000419 ± 0.014 | 0.000243 ± 0.021 | 0.000204 ± 0.021 |  |
| UCCUGGUAGAGCUUGCAUAGUAUUUUCAAA |  | 0.00315 ± 0.0039 | 0.00153 ± 0.0036 | 0.00111 ± 0.0056 |  |
| UCCUGGUACAGCUACCAUAGUAUUUAGAAA |  | 0.000776 ± 0.011 | 0.000915 ± 0.0058 | 0.00124 ± 0.0056 |  |
| UCCUGCUACAGCUUGCAUUCAAUUUACAAA |  | 0.000255 ± 0.017 | 0.000318 ± 0.0095 | 0.000162 ± 0.02 |  |
| UCCUGGUACAGCUACGAUAGUAUUUACAAA |  | 0.00031 ± 0.012 | 0.000918 ± 0.0082 | 0.000667 ± 0.0088 |  |
| UCCUGGAUGUCCAUGCAUAGUAAUUAGUUA |  | 0.0012 ± 0.0063 | 0.000626 ± 0.0055 | 0.00266 ± 0.0032 |  |
| UCCUGCUACUCGUUGCAUAGUAUUUACAAA |  | 0.00129 ± 0.0047 | 0.00087 ± 0.0062 | 0.00137 ± 0.0033 |  |
| UCCUGGUACAGCUUCCAUAGAAUUUAGUUA |  | 0.00167 ± 0.0037 | 0.00206 ± 0.0024 | 0.00124 ± 0.0068 |  |
| UCCUGGAUGUCCUUGCAUAGUAUUAUCUAA |  | 0.000603 ± 0.0085 | 0.00133 ± 0.0058 | 0.000627 ± 0.0075 |  |
| UCCUGGAUGAGCUUGCAUAGUAUAAUGAAA |  | 0.00347 ± 0.0035 | 0.000663 ± 0.0062 | 0.00104 ± 0.0066 |  |
| UCCUGGAUGUCGAACGAUCAGUAUUUAGUUA |  | 0.000392 ± 0.015 | 0.00014 ± 0.021 | 0.000173 ± 0.023 |  |
| UCCUGGAACAGCUUGCAUAGUUAAAUCAAA [g10:g23:cont:t1A] |  | 0.00126 ± 0.005 | 0.000369 ± 0.011 | 0.000865 ± 0.0064 |  |
| UCCUCCUACAGCUUGCAUAGUAUUUACAAA |  | 0.00255 ± 0.0035 |  | 0.00211 ± 0.0034 | 0.000566 ± 0.013 |
| UCCUGGAACUCGUUGCAUAGUAUUUUCAAA |  | 0.000973 ± 0.0058 | 0.00079 ± 0.0085 | 0.00115 ± 0.0052 |  |
| UCCUGGAUGUCGAAGCAAAGUAAUUAGUUA |  | 0.000499 ± 0.014 | 0.000737 ± 0.0097 | 0.000262 ± 0.016 |  |
| UCCUGGAUGUCCUUGCAUACAAUUUAGUAA |  | 0.000788 ± 0.0089 | 0.00108 ± 0.0057 | 0.000778 ± 0.0067 |  |
| UCCUGGAUGUCGAUGCAUAGUAUUAUCUUA |  | 0.000593 ± 0.0088 | 0.000476 ± 0.011 | 0.000706 ± 0.0072 |  |
| UCCUGGUUGUGCUUGCAUAGUAUUUUCAAA |  | 0.00216 ± 0.0048 | 0.00114 ± 0.0044 | 0.00137 ± 0.0049 |  |
| UCCUGGAACAGCUUGCAUAGUAUAAACAAA |  | 0.00201 ± 0.0042 | 0.00237 ± 0.0044 | 0.00114 ± 0.0053 |  |
| UCCUGGAUGUCGAAGCAUAAGUAUUUAGUUA |  | 0.000193 ± 0.016 | 0.000405 ± 0.0077 | 0.000404 ± 0.011 |  |
| UCCUGCUACAGCUUCCAUAGUAUUUAGAAA |  | 0.000955 ± 0.0083 | 0.00349 ± 0.0019 | 0.000578 ± 0.0079 |  |
| UCCUGGAUGUCGAUGCAUAGUAUUUAGAUUA |  | 0.000709 ± 0.011 | 0.00188 ± 0.0025 | 0.000999 ± 0.0056 |  |
| UCCUGGAUGAGCUUGCAUUCAAUUUAGAAA |  | 0.000186 ± 0.017 | 0.000281 ± 0.012 | 0.000307 ± 0.019 |  |
| UCCUGGAUGUCCUUGCAUAGUAUUUAGAAA |  | 0.00145 ± 0.0061 | 0.00278 ± 0.0022 | 0.00108 ± 0.0058 |  |

Already shown: an excerpt of the list.

| Sequence | pre-steady-state target cleavage rate ([1]; auxiliary factor: 500 nM mouse GTSF1) | pre-steady-state target cleavage rate [2] | pre-steady-state target cleavage rate [3, 4] | pre-steady-state target cleavage rate [1, 5] | pre-steady-state target cleavage rate ([3]; auxiliary factor: none (no Gtsf1)) |
| --- | --- | --- | --- | --- | --- |
| UCCUGGAUGUCGAUGCAUAGUAUUUAGAUUA |  | 0.000709 ± 0.011 | 0.00188 ± 0.0025 | 0.000999 ± 0.0056 |  |
| UCCUGGAUGAGCUUGCAUUCAAUUUAGAAA |  | 0.000186 ± 0.017 | 0.000281 ± 0.012 | 0.000307 ± 0.019 |  |
